Data on 30 sequences can be found in PubChem BioAssay AID1508600 (Functional Genomics Laboratory (NCATS/FGL), 2020).

Out of some 53,000 sequences screened, about 3,700 (7%) were called active.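 Rule for the calls: active = gene knockdowns whose robust z-score for IL-1 alpha signal is at least 2 or at most -2, so actives lie on both sides; inactive = the rest.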 Some of the results follow.

The assay in a line: Components of the Cytosolic LPS Sensing Pathway: Gene Identification via Genome-wide siRNA Screen. The note with it: RAW264.7 macrophages, IL-1a HTRF, actives lie on both sides, screened at 100 nM (by protocol), cells primed 5 h with Pam3CSK4 first. From the text:
Non-canonical inflammasome activation by cytosolic LPS is a critical component of the host response to Gram-negative bacterial infection, however we lack a comprehensive understanding of the cellular processes that control this pathway. Here we describe a genome-wide siRNA screen to identify genes regulating the mouse macrophage IL-1 alpha response to cytosolic LPS.
RAW264.7 cells were maintained in complete DMEM media, comprising DMEM with 4.5 g/L glucose, 10% FBS (Gemini Bio-Products, West Sacramento, CA), 2 mM Glutamine (Lonza) and 20 mM HEPES (Lonza), hereafter complete DMEM.
The RNAi screen was conducted in 384-well format using the Ambion Silencer Mouse Genome siRNA Library (#4391425), which consists of three unique, nonoverlapping, nonpooled siRNAs for each of 17,000 gene targets. siRNA reagents ([…]) were stamped into 384-well white flat-bottom microplates (Corning, 3570) using a Velocity11 VPrep liquid handling system (Agilent) integrated into a BioCel robotic platform (Agilent) in columns 1-22, leaving columns 23-24 empty for negative (Ambion, Negative control #1) and positive (mouse Casp4) controls, respectively. The median value of each plate's negative control column was used to normalize sample wells, and the positive control was used to assess transfection efficiency and assay performance.
Lipofectamine RNAiMAX Transfection Reagent ([…]; Invitrogen) was added in […] serum-free, antibiotic-free media to plate wells using a Thermo Scientific Matrix WellMate and Microplate Stacker. Plates were incubated for 45 min at room temperature to allow for the sufficient formation of siRNA-lipid complexes. Cells were seeded at a density of 1x10^4 cells per well in 20 microL media containing 20% (vol/vol) FBS without antibiotics. The final concentration of siRNA in each well was 100 nM. Cells were cultured for 48h at 37 degrees C in 5% CO2 before addition of […] of TLR ligand Pam3CSK4 for 5 hours. The medium was then removed, replaced with […] growth media and cell were transfected with […] of LipidA and TransIT-TKO (Mirus) for 24 hour. At the end of the LipidA treatment, […] of supernatant was transferred to a 384 Greiner Bio-one non-binding low volume plate and […] of IL-1a HTRF reagent (Cisbio, 62MIL1APEH) was added and incubated at room temperature overnight. The plates were read on an EnVision plate reader (PerkinElmer). Cell viability was measured by adding 20ul Cell Titer Glo to the original plate and running a luminescence read on the EnVision. The quantified IL-1a signal for each siRNA gene-targeted well was divided by the median of the negative control wells and multiplied by 100 to achieve a negative control normalized value for each well/siRNA. This normalized value was then used to generate a robust z-score by first taking the log of each value and then by subtracting the median and dividing by the […].
(In general: In TR-FRET formats the signal depends on donor and acceptor labels being close together.)
Consider CCAAGAGAUCCUUAUUAAATT against Necap2, for which the z-score is inactive: -0.215. For the sequence GGUGGAAGCUAGAAACCUATT against Cpne1, the z-score is inactive: 0.57. Regarding AAGAGCCAUUAAUCGAGAATT against Cklf, the z-score was inactive: -0.0691. Turning to GGGAAAAGCAAACACUAAUTT against C1d, the z-score is inactive: -1.84.

Turning to GGCCAGGAAAGAUUUCGAATT against Rab1a, the z-score is inactive: 0.0539.

GGGUGGUGACCCUAAAACUTT against Zfp819: the z-score was inactive: 0.931. To GGCACUCCUGAUGUUCUCUTT against Cyb561d2 belongs active: -2.96; to CCAGUUCAGAGAUUAUCUUTT against Olfr826, active: -2.13. In the case of CCAUAGGUUUCGGCAUGACTT against Kcnk12 it was inactive: -0.107; in that of GGUUUUUAUACUCUGGGAUTT against Elavl1, inactive: 1.1; in that of CCUCAUCAAGACCUACAAGTT against Dyrk1b, inactive: 1.88.

Regarding GCUAGCUAAUCCUUGUUUATT against Golm2, the z-score is inactive: 0.496.

With GGAUAUGCUGUGAAGUAUUTT against Plekhf2, the z-score was inactive: 1.68. For the sequence GCUAAGCUAAAUUAAAUGCTT against Rp2, the z-score was inactive: 0.258. To GGGAUGCUUUGUUGCUGUUTT against Olfr836 belongs inactive: 0.296; to CGCGUAGAUAAGAAGUAUUTT against Anks1, inactive: 0.181. For the sequence GCCCUGAACUACCUAGAAATT against Alg5, the z-score is inactive: 1.58.

Consider CCAAGUUCUCAUGGUUCUGTT against Serpina3k, for which the z-score was inactive: -0.302.

For GGAGAGCUCCUAUAAUCCUTT against Plau, the z-score was inactive: 0.267. To GGAAUUCAAAACCUUCUAUTT against Rai14 belongs inactive: -0.521; to GGCAUCUCCACCUUUUCAUTT against Abcc9, inactive: -0.833; to CCAUCAAUUUGGAGACUAUTT against Cav1, inactive: 0.212.

With GGAACAUGUUUAUAUGGUATT against Iigp1, the z-score is inactive: 0.355. For GGAAUUGUCUAAAUUGGCUTT against Hoxd1, the z-score is inactive: -1.19. To GGGAUUUACACUCACUCCUTT against Tle2 belongs inactive: -0.406. To CGGUGGAAAUACCAGGAUGTT against Tshb belongs inactive: 0.406; to “GGUAGUUAACACAAAAUUGTT against 4932438H23Rik”, inactive: 0.334. Regarding GGAGUCCCAAACCUUCUCATT against Spata3, the z-score is inactive: -1.8. In the case of GGGAAGGACUGUAAGAAAATT against Dipk1a, the z-score was inactive: -0.252. With GGACUUUGCCCUGGAUUCUTT against Cnot1, the z-score is inactive: -0.216.
